From paper PMC7565110 come the findings set out here.

Assay [1] deals with T1, Tumor susceptibility gene 101 (Tsg101) (mouse (endogenous in mouse heart)) (UniProt Q61187).
T1 sequence: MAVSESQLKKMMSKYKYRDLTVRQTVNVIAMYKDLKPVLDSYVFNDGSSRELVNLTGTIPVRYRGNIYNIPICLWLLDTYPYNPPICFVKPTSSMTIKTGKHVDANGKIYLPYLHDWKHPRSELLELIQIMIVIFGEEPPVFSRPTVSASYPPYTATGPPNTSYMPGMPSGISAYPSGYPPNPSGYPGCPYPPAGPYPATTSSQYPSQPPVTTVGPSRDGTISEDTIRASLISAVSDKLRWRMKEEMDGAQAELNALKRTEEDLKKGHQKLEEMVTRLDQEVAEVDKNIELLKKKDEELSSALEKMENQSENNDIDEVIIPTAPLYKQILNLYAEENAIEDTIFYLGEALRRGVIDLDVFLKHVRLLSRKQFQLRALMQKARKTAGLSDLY
Briefly: co-IP; mouse heart homogenates (pre- and post-ischemia, ex vivo 45-min ischemia) in NP40 lysis buffer, pre-cleared with protein A/G-agarose, 1 ug primary antibody (anti-Glut-4 or anti-Tsg101) at 4 °C overnight, 5 washes, immunoblot for the partner.

Assay [2] concerns the target T2, glucose transporter-4 (Glut-4) (mouse (endogenous in mouse heart)) (UniProt P14142).
T2 sequence: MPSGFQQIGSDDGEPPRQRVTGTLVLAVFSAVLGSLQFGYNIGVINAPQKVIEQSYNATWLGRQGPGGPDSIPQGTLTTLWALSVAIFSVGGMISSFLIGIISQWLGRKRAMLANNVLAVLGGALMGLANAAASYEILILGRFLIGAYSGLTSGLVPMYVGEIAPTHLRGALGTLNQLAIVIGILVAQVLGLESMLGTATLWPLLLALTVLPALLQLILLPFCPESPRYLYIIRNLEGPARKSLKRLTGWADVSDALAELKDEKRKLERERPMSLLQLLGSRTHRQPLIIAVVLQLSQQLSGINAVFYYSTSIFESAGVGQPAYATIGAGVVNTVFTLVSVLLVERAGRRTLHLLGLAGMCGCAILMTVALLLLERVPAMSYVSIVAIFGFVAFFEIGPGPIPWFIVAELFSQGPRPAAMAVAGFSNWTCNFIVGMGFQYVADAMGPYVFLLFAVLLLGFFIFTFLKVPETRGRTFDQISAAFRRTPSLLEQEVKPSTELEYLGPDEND
The description is as above.

These are yes or no findings as the source states them, for the method shown. Binding seen in cells or lysates may run through a third protein. Some entries that bind do so weakly or less than the wild type. Sequences can lack the tags named with a protein.

B1: glucose transporter-4 (Glut-4) (protein, UniProt P14142 1-509)
chain: MPSGFQQIGSDDGEPPRQRVTGTLVLAVFSAVLGSLQFGYNIGVINAPQKVIEQSYNATWLGRQGPGGPDSIPQGTLTTLWALSVAIFSVGGMISSFLIGIISQWLGRKRAMLANNVLAVLGGALMGLANAAASYEILILGRFLIGAYSGLTSGLVPMYVGEIAPTHLRGALGTLNQLAIVIGILVAQVLGLESMLGTATLWPLLLALTVLPALLQLILLPFCPESPRYLYIIRNLEGPARKSLKRLTGWADVSDALAELKDEKRKLERERPMSLLQLLGSRTHRQPLIIAVVLQLSQQLSGINAVFYYSTSIFESAGVGQPAYATIGAGVVNTVFTLVSVLLVERAGRRTLHLLGLAGMCGCAILMTVALLLLERVPAMSYVSIVAIFGFVAFFEIGPGPIPWFIVAELFSQGPRPAAMAVAGFSNWTCNFIVGMGFQYVADAMGPYVFLLFAVLLLGFFIFTFLKVPETRGRTFDQISAAFRRTPSLLEQEVKPSTELEYLGPDEND
For the molecule B1, in assay [1], the binding entry is “binds”.

B2: Tumor susceptibility gene 101 (Tsg101) (protein, UniProt Q61187 1-391)
chain: MAVSESQLKKMMSKYKYRDLTVRQTVNVIAMYKDLKPVLDSYVFNDGSSRELVNLTGTIPVRYRGNIYNIPICLWLLDTYPYNPPICFVKPTSSMTIKTGKHVDANGKIYLPYLHDWKHPRSELLELIQIMIVIFGEEPPVFSRPTVSASYPPYTATGPPNTSYMPGMPSGISAYPSGYPPNPSGYPGCPYPPAGPYPATTSSQYPSQPPVTTVGPSRDGTISEDTIRASLISAVSDKLRWRMKEEMDGAQAELNALKRTEEDLKKGHQKLEEMVTRLDQEVAEVDKNIELLKKKDEELSSALEKMENQSENNDIDEVIIPTAPLYKQILNLYAEENAIEDTIFYLGEALRRGVIDLDVFLKHVRLLSRKQFQLRALMQKARKTAGLSDLY
In the case of B2, the binding result in assay [2] was “binds”.

B3: Tsg101 in hearts of mice with heart-specific overexpression of Tsg101 (Tsg101-TG) (protein, UniProt Q61187 1-391)
chain: MAVSESQLKKMMSKYKYRDLTVRQTVNVIAMYKDLKPVLDSYVFNDGSSRELVNLTGTIPVRYRGNIYNIPICLWLLDTYPYNPPICFVKPTSSMTIKTGKHVDANGKIYLPYLHDWKHPRSELLELIQIMIVIFGEEPPVFSRPTVSASYPPYTATGPPNTSYMPGMPSGISAYPSGYPPNPSGYPGCPYPPAGPYPATTSSQYPSQPPVTTVGPSRDGTISEDTIRASLISAVSDKLRWRMKEEMDGAQAELNALKRTEEDLKKGHQKLEEMVTRLDQEVAEVDKNIELLKKKDEELSSALEKMENQSENNDIDEVIIPTAPLYKQILNLYAEENAIEDTIFYLGEALRRGVIDLDVFLKHVRLLSRKQFQLRALMQKARKTAGLSDLY
In the case of B3, the binding entry in assay [2] is “binds”.
